For at least one compound, name, drawing or mass did not settle the structure.
What was measured:
Format in all cases: in vivo, mouse
HbSS BERK mice [1] = test: Excisional wound healing in sickle cell mice; conditions: 20 μl of 100 mM DFO solution subcutaneously into the wound daily, **p<0.01
Source text: The proposed mechanism for healing was investigated using a sickle cell mouse study (Rodrigues et al. publication pending). In this study, transgenic sickle cell mouse model, HbSS-BERK, were used to determine the effectiveness of DIDP. […] They recapitulate human sickle cell disease including hemolysis, reticulocytosis, anemia, extensive organ damage, shortened life span and pain.
Mice. […] These mice simulate human sickle cell disease including hemolysis, reticulocytosis, anemia, extensive organ damage, shortened life span and pain26-28. HbSS-BERK mice were bred and phenotyped for human sickle hemoglobin. Genotyping for the knockout and hemoglobin transgenes was performed. Control mice (wild type) on a C57/Bl6 background [#000664] were also obtained.
DFO delivery device. A transdermal delivery system was used to deliver DFO into the dermal tissue of the mice. […]
Excisional wound healing. Five-month old male HbSS BERK and wild type mice were subjected to a quantitative and reproducible model of excisional wounding using an established protocol described in Galioano et al., Wound Repair Regen 12, 485-492, doi:10.1111/j.1067-1927.2004.12404.x (2004). […]
Wound treatment. […] Wound area was measured using Image J software (NIH). […]

HbSS BERK mice [2] = test: Trichrome histology of healed wounds (collagen deposition, dermal thickness, remodeling)
[3] = test system: non-chelated iron in the skin; test: Perl's Prussian Blue stain for iron in healed wound sections; conditions: healed wounds of HbSS BERK mice

CC(=O)N(O)CCCCCNC(=O)CCC(=O)N(O)CCCCCNC(=O)CCC(=O)N(O)CCCCCN [DFO, deferoxamine]
Wound area compared to untreated controls (HbSS BERK mice [1]): significantly reduced wound area | Wound remodeling (histology) (HbSS BERK mice [2]): regions of active cell proliferation and the presence of disorganized extracellular matrix | Iron in the skin (Perl's Prussian blue stain) [3]: negligible levels of Perl's Prussian blue stain
